Measurements published in US20230416314A1, “MODIFIED HIGH MOLECULAR WEIGHT GLUTENIN SUBUNIT AND USES THEREOF” (Ukko Inc., priority 2020, published 2023).
At least one peptide structure holds a part that was inferred or is arguable (an end, a ring closure or a residue). Some compounds share one wording; it may come from a single statement. Residues, ends and D or L forms follow the SMILES beside them.

How the values were obtained:
MHC II = MHC II binding assay; design: species or system human; details: summary of Table 3
[1] = tested on: Gluten-reactive T-cell lines (TCLs) from celiac disease patients' biopsies; assay: T-cell activation assay (IFN-γ ELISA); assay type: cell-based, human; details: peptides 10 μM, 48 h; positive if IFNγ ≥2-fold vs control and significantly higher (one-sided t-test)
Method: 200 mg of protein were first incubated in 5% formic acid with 4 mg pepsin for 4 hours in 37° C. Then the sample was evaporated using speedVac. On the following day, the protein was incubated with 4 mg chymotrypsin in 20 mM ammonium-bicarbonate for 4 hours in 37° C., followed by speedVac evaporation. The concentration of the digest was then measured, and the digest was deamidated using transglutaminase, 2 U per 7 mg digest for 6 hours in 37° C. The samples were then cleaned using a C18 column, dried and resuspended in media at a concentration of 2 mg/ml.
Gluten-reactive T-cell lines (TCLs) were generated based on a previously described method, with modifications (Gianfrani, Carmen, et al. “Transamidation of wheat flour inhibits the response to gliadin of intestinal T cells in celiac disease.” Gastroenterology 133.3 (2007): 780-789 Briefly, mucosal explants were digested with collagenase A and cells were seeded at 2-3×10^5 cells/ml in complete medium X-Vivo15 (Lonza) supplemented with 5% AB-pooled human serum (Biotag) and antibiotics. Cells were stimulated with 1.5×10^6 irradiated PBMC and TG2 (Sigma-Aldrich)-treated (deamidated) pepsin chemotrypsin (PCT-) digested HMW (50 μg/ml). IL-15 and IL-2 (Peprotech) were added after 24 h at 10 ng/ml and 20 units/ml respectively. Cytokines were supplemented every 3-4 days and cells were split according to need. The cells were restimulated approximately 2 weeks after the first stimulation.
TCLs from celiac disease patients' biopsies were assayed for responses to deamidated PCT-HMW proteins and HMW peptides by the detection of IFN-7 by enzyme-linked immunosorbent assay (ELISA), as previously described (Gianfrani, Carmen, et al. “Gliadin-specific type 1 regulatory T cells from the intestinal mucosa of treated celiac patients inhibit pathogenic T cells.” The journal of immunology 177.6 (2006): 4178-4186.). HLA-matched B-LCLs (Sigma-Aldrich) or orthologous PBMCs were used as antigen presenting cells (APCs). PCT-HMW proteins (100 μg/ml) or peptides (10 μM) (A&A labs) were added to APCs (1×10^5) concomitantly with responder T cells (4×10^4). The cells were seeded in 200 μl X-vivo15 medium in round-bottom 96 well plate (Corning) and incubated for 48 h. Each peptide/protein was tested in 4 replicates. DMSO serves as negative control for peptides testing and blank medium serves as negative control for protein testing. For ELISA experiments, Nunc MaxiSorp plates (Thermo Fisher) were coated with 1 μg/ml α-IFNγ antibody (Mabtech), blocked and incubated overnight with 50 μl of the sups taken from the TCLs' plates. Recombinant IFNγ (Bactlab) was used for standard curve generation. The plate was incubated with biotin-α-IFNγ antibody (1 μg/ml) (Mabtech), streptavidin-HRP (Bactlab)(1:5000) and TMB (Thermo Fisher). The reaction was stopped, and the plate was read on the ELISA plate reader at […]. The results were analyzed using Graphpad Prism and IFNγ levels were determined. The results were normalized to the control.

HLA-DQ2.2 = HLA-DQ2.2 (Homo sapiens, UniProt P01909+P01920, A45G/A70V/C70K/D167G/D89A/E106A/E183D/E77G/E98D/F237L/F77L/G63E/H199R/I129T/K197E/L107V/L178F/L74F/N214S/P84L/P87L/Q57E/Q76R/R75H/S185I/S97I/T103K/T109R/T172A/T60S/V73L/V78E/V99I/Y48F/Y58L/Y62S/Y69I/Y79F); assay: MHC II/peptide competition binding assay, HLA-DQ2.2; details: summary of Table 3
Method: One skilled in the art would appreciate that the 15-mers used included shorter de-epitoped high molecular weight glutenin peptide sequences (mutated repeating antigenic units), as described throughout. For example, Table 2 provides a listing of 15-mers and the shorter mutated repeating antigenic units present therein. […] MHC II molecules were purified by affinity chromatography, and peptides were radiolabeled using the chloramine T method. After an incubation period, the bound and unbound radiolabeled species were separated, and their relative amounts were determined by either size-exclusion gel-filtration chromatography or monoclonal antibody capture of MHC. The percent of bound radioactivity was then determined.

| SMILES | binding affinity to MHC II (MHC II) | T-cell activation (IFN-γ levels by ELISA) [1] | HLA-DQ2.2 binding affinity (HLA-DQ2.2) |
| --- | --- | --- | --- |
| CC(C)C[C@H](NC(=O)[C@H](CO)NC(=O)[C@@H](NC(=O)[C@@H]1CCCN1C(=O)[C@H](Cc1ccc(O)cc1)NC(=O)[C@H](Cc1ccc(O)cc1)NC(=O)CNC(=O)[C@H](Cc1c[nH]cn1)NC(=O)[C@H](CCC(N)=O)NC(=O)CNC(=O)[C@@H](N)CCC(N)=O)[C@@H](C)O)C(=O)N[C@@H](Cc1c[nH]cn1)C(=O)N[C@@H](CCC(N)=O)C(=O)N[C@@H](CO)C(=O)NCC(=O)O [P1f] (H-QGQHGYYPTSLHQSG-OH) | binding is indetectable | abolishment of T-cell activation |  |
| CC(C)C[C@H](NC(=O)CNC(=O)[C@H](CCCNC(=N)N)NC(=O)CNC(=O)[C@H](CCC(=O)O)NC(=O)[C@H](CCC(N)=O)NC(=O)CNC(=O)[C@@H](N)CCC(N)=O)C(=O)N[C@H](C(=O)N[C@@H](CO)C(=O)N1CCC[C@H]1C(=O)N[C@@H](Cc1c[nH]cn1)C(=O)N[C@@H](CCC(N)=O)C(=O)N[C@@H](CO)C(=O)NCC(=O)O)[C@@H](C)O [SEQ ID NO: 144] (H-QGQEGRGLTSPHQSG-OH) |  | abolishment of T-cell activation |  |
| C[C@@H](O)[C@H](NC(=O)[C@H](CO)NC(=O)[C@@H](NC(=O)[C@@H]1CCCN1C(=O)[C@H](Cc1ccc(O)cc1)NC(=O)[C@H](Cc1c[nH]cn1)NC(=O)[C@H](Cc1c[nH]c2ccccc12)NC(=O)[C@H](CCC(=O)O)NC(=O)[C@H](CCC(N)=O)NC(=O)CNC(=O)[C@@H](N)CCC(N)=O)[C@@H](C)O)C(=O)N[C@@H](CCC(=O)O)C(=O)N[C@@H](CCC(N)=O)C(=O)N[C@@H](CO)C(=O)NCC(=O)O [P1h] (H-QGQEWHYPTSTEQSG-OH) | binding is indetectable | abolishment of T-cell activation | levels that are similar to those of a deamidated peptide |
| C[C@H](NC(=O)[C@@H]1CCCN1C(=O)CNC(=O)[C@H](CCCNC(=N)N)NC(=O)CNC(=O)[C@H](CCC(=O)O)NC(=O)[C@H](CCC(N)=O)NC(=O)CNC(=O)[C@@H](N)CCC(N)=O)C(=O)N[C@@H](CO)C(=O)N1CCC[C@H]1C(=O)N[C@@H](CCCNC(=N)N)C(=O)N[C@@H](CCC(N)=O)C(=O)N[C@@H](CO)C(=O)NCC(=O)O [SEQ ID NO: 145] (H-QGQEGRGPASPRQSG-OH) |  | abolishment of T-cell activation |  |
| C[C@@H](O)[C@H](NC(=O)[C@@H]1CCCN1C(=O)[C@H](Cc1ccc(O)cc1)NC(=O)[C@H](Cc1ccc(O)cc1)NC(=O)[C@H](CCCNC(=N)N)NC(=O)[C@@H]1CCCN1C(=O)[C@H](CCC(N)=O)NC(=O)CNC(=O)[C@@H](N)CCC(N)=O)C(=O)N[C@@H](CO)C(=O)N1CCC[C@H]1C(=O)N[C@@H](CCCNC(=N)N)C(=O)N[C@@H](CCC(N)=O)C(=O)N[C@@H](CO)C(=O)NCC(=O)O [P1e] (H-QGQPRYYPTSPRQSG-OH) | significant reduction in binding affinity to MHC II | abolishment of T-cell activation |  |
| C[C@H](NC(=O)CNC(=O)[C@@H](N)CCC(N)=O)C(=O)N[C@@H](C)C(=O)NCC(=O)N[C@@H](Cc1ccc(O)cc1)C(=O)N[C@@H](Cc1ccc(O)cc1)C(=O)N1CCC[C@H]1C(=O)N[C@H](C(=O)N[C@@H](CO)C(=O)N1CCC[C@H]1C(=O)N[C@@H](CCCNC(=N)N)C(=O)N[C@@H](CCC(N)=O)C(=O)N[C@@H](CO)C(=O)NCC(=O)O)[C@@H](C)O [P1c] (H-QGAAGYYPTSPRQSG-OH) | significant reduction in binding affinity to MHC II | abolishment of T-cell activation |  |
| CC(C)C[C@H](NC(=O)[C@H](CO)NC(=O)[C@@H](NC(=O)[C@@H]1CCCN1C(=O)[C@H](Cc1ccc(O)cc1)NC(=O)[C@H](Cc1ccc(O)cc1)NC(=O)CNC(=O)[C@@H]1CCCN1C(=O)[C@H](CCC(N)=O)NC(=O)CNC(=O)[C@@H](N)CCC(N)=O)[C@@H](C)O)C(=O)N[C@H](C(=O)N[C@@H](CCC(N)=O)C(=O)N[C@@H](CO)C(=O)NCC(=O)O)[C@@H](C)O [SEQ ID NO: 147] (H-QGQPGYYPTSLTQSG-OH) |  | abolishment of T-cell activation |  |
| C[C@@H](O)[C@H](NC(=O)[C@@H]1CCCN1C(=O)[C@H](CC(=O)O)NC(=O)[C@H](CC(N)=O)NC(=O)CNC(=O)[C@H](CCC(=O)O)NC(=O)[C@H](CCC(N)=O)NC(=O)CNC(=O)[C@@H](N)CCC(N)=O)C(=O)NCC(=O)N1CCC[C@H]1C(=O)N[C@@H](CCC(=O)O)C(=O)N[C@@H](CCC(N)=O)C(=O)N[C@@H](CO)C(=O)NCC(=O)O [P1g] (H-QGQEGNDPTGPEQSG-OH) | binding is indetectable | abolishment of T-cell activation |  |
| C[C@H](NC(=O)[C@@H]1CCCN1C(=O)CNC(=O)[C@H](Cc1c[nH]cn1)NC(=O)CNC(=O)[C@H](CCC(=O)O)NC(=O)[C@H](CCC(N)=O)NC(=O)CNC(=O)[C@@H](N)CCC(N)=O)C(=O)N[C@@H](CO)C(=O)N1CCC[C@H]1C(=O)N[C@@H](CCCCN)C(=O)N[C@@H](CCC(N)=O)C(=O)N[C@@H](CO)C(=O)NCC(=O)O [SEQ ID NO: 174] (H-QGQEGHGPASPKQSG-OH) |  | abolishment of T-cell activation |  |
| C[C@@H](O)[C@H](NC(=O)[C@@H]1CCCN1C(=O)[C@H](Cc1ccc(O)cc1)NC(=O)[C@H](CCCNC(=N)N)NC(=O)CNC(=O)[C@H](CCC(=O)O)NC(=O)[C@H](CCC(N)=O)NC(=O)CNC(=O)[C@@H](N)CCC(N)=O)C(=O)N[C@@H](CO)C(=O)N1CCC[C@H]1C(=O)N[C@@H](CCCCN)C(=O)N[C@@H](CCC(N)=O)C(=O)N[C@@H](CO)C(=O)NCC(=O)O [SEQ ID NO: 146] (H-QGQEGRYPTSPKQSG-OH) |  | abolishment of T-cell activation |  |
| C[C@@H](O)[C@H](NC(=O)[C@@H]1CCCN1C(=O)[C@H](CC(=O)O)NC(=O)[C@H](Cc1ccc(O)cc1)NC(=O)CNC(=O)[C@H](CO)NC(=O)[C@H](CCC(N)=O)NC(=O)CNC(=O)[C@@H](N)CCC(N)=O)C(=O)N[C@@H](CO)C(=O)N1CCC[C@H]1C(=O)N[C@H](C(=O)N[C@@H](CCC(N)=O)C(=O)N[C@@H](CO)C(=O)NCC(=O)O)[C@@H](C)O [P1d] (H-QGQSGYDPTSPTQSG-OH) | binding is indetectable | abolishment of T-cell activation |  |
| NC(=O)CC[C@H](NC(=O)CNC(=O)[C@@H](N)CCC(N)=O)C(=O)N[C@@H](CCC(=O)O)C(=O)N1CCC[C@H]1C(=O)N[C@@H](Cc1ccc(O)cc1)C(=O)NCC(=O)N1CCC[C@H]1C(=O)N[C@@H](CO)C(=O)N[C@@H](CO)C(=O)N1CCC[C@H]1C(=O)N[C@@H](CCC(=O)O)C(=O)N[C@@H](CCC(N)=O)C(=O)N[C@@H](CO)C(=O)NCC(=O)O [SEQ ID NO: 176] (H-QGQEPYGPSSPEQSG-OH) |  | abolishment of T-cell activation |  |
| CC(C)C[C@H](NC(=O)[C@H](CC(=O)O)NC(=O)[C@H](CCCNC(=N)N)NC(=O)CNC(=O)[C@H](CCC(=O)O)NC(=O)[C@H](CCC(N)=O)NC(=O)CNC(=O)[C@@H](N)CCC(N)=O)C(=O)N[C@H](C(=O)N[C@@H](CO)C(=O)N1CCC[C@H]1C(=O)N[C@@H](CCCCN)C(=O)N[C@@H](CCC(N)=O)C(=O)N[C@@H](CO)C(=O)NCC(=O)O)[C@@H](C)O [SEQ ID NO: 169] (H-QGQEGRDLTSPKQSG-OH) |  | abolishment of T-cell activation |  |
